Source: paper PMC5716713
Results are given in words; binding and its absence hold for the method and conditions named. In cells and extracts the contact can be indirect. Some results given as binding are weak or reduced against the parent protein; the word gives no strength. For part of these data: Tags and fused reporters may be left off the sequences shown.

Protein sequences, listed by entry. Tags and fused reporters are not part of them.
UniProt P31749: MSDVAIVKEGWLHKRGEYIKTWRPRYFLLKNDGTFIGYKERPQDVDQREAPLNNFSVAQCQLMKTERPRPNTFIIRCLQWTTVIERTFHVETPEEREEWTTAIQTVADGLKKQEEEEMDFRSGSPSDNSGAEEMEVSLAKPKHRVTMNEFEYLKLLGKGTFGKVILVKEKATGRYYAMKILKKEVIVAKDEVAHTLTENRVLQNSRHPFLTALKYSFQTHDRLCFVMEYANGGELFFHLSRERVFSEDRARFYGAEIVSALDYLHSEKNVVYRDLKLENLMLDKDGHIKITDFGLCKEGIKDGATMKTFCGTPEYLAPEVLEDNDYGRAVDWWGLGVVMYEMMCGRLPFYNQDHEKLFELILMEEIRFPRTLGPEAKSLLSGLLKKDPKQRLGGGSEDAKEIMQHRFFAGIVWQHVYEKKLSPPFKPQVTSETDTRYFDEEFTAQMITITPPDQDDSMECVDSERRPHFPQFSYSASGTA

Assays:
[1] = target: T1, GST-FAK Truncation 1 (human) (UniProt Q05397); assay: pull-down; GST or GST-FAK fusion on glutathione-Sepharose 4B beads (30 μl) incubated with cell lysate (1500 μg protein) overnight at 4°C; eluate blotted for Akt1 and GST; only the target purified
T1 sequence: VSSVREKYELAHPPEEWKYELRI

[2] = target: T2, GST-FAK Truncation 2 (human) (UniProt Q05397); assay: as above
T2 sequence: VSSVREKYELAHPPEE

[3] = target: T3, GST-FAK Truncation 3 (human) (UniProt Q05397); assay: as above
T3 sequence: LAHPPEEWKYELRI

[4] = target: T4, GST-FAK Truncation 4 (human); assay: as above
T4 sequence: LAHPPEE

GST-FAK-NT1-2-2 (human) = target: T5, GST-FAK-NT1-2-2 (human) (UniProt Q05397); assay: as above
T5 sequence: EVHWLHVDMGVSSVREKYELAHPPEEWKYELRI

[5] = target: full length GST-FAK (human) (UniProt Q05397); assay: pull-down; competition: GST-FAK-NT1 or GST-FAK beads and cell lysate with interfering FAK-derived peptide or vehicle (water), two hours at 4°C before overnight Akt1 incubation; the pair that is blocked; only the target purified

binding [1]: binds
binding [2]: binds
binding [3]: binds
binding [4]: binds
binding (GST-FAK-NT1-2-2 (human)): binds
binding [5]: binds
Substance: endogenous Akt1 of SW620 cells (from UniProt P31749 1-480) (enzyme)
